Experimental data: PMC3806761, “Characterization of the Akt2 Domain Essential for Binding Nuclear p21cip1 to Promote Cell Cycle Arrest during Myogenic Differentiation” (PLoS ONE, 2013)
These are yes or no findings as the source states them, for the method shown.

The chains behind the UniProt entries cited, without tags or fusion partners.
UniProt P38936: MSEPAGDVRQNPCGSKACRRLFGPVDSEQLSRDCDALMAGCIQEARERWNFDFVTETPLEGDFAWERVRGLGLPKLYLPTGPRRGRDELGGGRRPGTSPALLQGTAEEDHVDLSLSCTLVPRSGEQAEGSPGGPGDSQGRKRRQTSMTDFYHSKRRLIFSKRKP

B1: Akt2 (430–481) (domain or fragment, UniProt P31751 430-481)
chain: VTSEVDTRYFDDEFTAQSITITPPDRYDSLGLLELDQRTHFPQFSYSASIRE

Biological target: T1, recombinant human p21cip1 (human, UniProt P38936 1-164)
T1 construct: In the functional row this molecule stands for p21cip1 endogenous in human myoblasts; source: recombinant, purified
Test: pull-down; purified His-tagged Akt2 proteins and His-tagged p21cip1 incubated together on ice; p21cip1 immunoprecipitated with anti-p21; immunoprecipitates probed for Akt2 by Western blot; both purified

| Molecule | binding |
| --- | --- |
| Akt2 (1–430) (from UniProt P31751 1-430) (domain or fragment) | no binding |
| B1 | no binding |
